Source: doi:10.1101/346619
Results are given in words; binding and its absence hold for the method and conditions named. For some assays here: Binding seen in cells or lysates may run through a third protein. For some assays here: Binding can be weak; no strength is given. For some assays here: Where a sequence is shown, tags or fusion partners need not be part of it. Blank lines part the entries; values can stand above or below the binder they belong to.

Experiments:
[1] = target: HCF1, endogenous (human (endogenous in HUDEP-2)); assay: co-IP
[2] = target: NCoR1 fragment with repressive domains 2 plus 3 (NCoR1-RD2/3) (mouse); assay: two-hybrid

- binding [1]: binds
B1: TR4 (NR2C2), endogenous (protein, UniProt P49116 1-596)
chain: MTSPSPRIQIISTDSAVASPQRIQIVTDQQTGQKIQIVTAVDASGSPKQQFILTSPDGAGTGKVILASPETSSAKQLIFTTSDNLVPGRIQIVTDSASVERLLGKTDVQRPQVVEYCVVCGDKASGRHYGAVSCEGCKGFFKRSVRKNLTYSCRSNQDCIINKHHRNRCQFCRLKKCLEMGMKMESVQSERKPFDVQREKPSNCAASTEKIYIRKDLRSPLIATPTFVADKDGARQTGLLDPGMLVNIQQPLIREDGTVLLATDSKAETSQGALGTLANVVTSLANLSESLNNGDTSEIQPEDQSASEITRAFDTLAKALNTTDSSSSPSLADGIDTSGGGSIHVISRDQSTPIIEVEGPLLSDTHVTFKLTMPSPMPEYLNVHYICESASRLLFLSMHWARSIPAFQALGQDCNTSLVRACWNELFTLGLAQCAQVMSLSTILAAIVNHLQNSIQEDKLSGDRIKQVMEHIWKLQEFCNSMAKLDIDGYEYAYLKAIVLFSPDHPGLTSTSQIEKFQEKAQMELQDYVQKTYSEDTYRLARILVRLPALRLMSSNITEELFFTGLIGNVSIDSIIPYILKMETAEYNGQITGASL

- binding [2]: no binding
B2: Sin3A, two-hybrid fusion (protein, UniProt Q60520 1-1274)
chain: MKRRLDDQESPVYAAQQRRIPGSTEAFSHQHRVLAPAPPVYEAVSETMQSATGIQYSVAPNYQVSAVPQSSGSHGPAIAAVHSSHHHPTAVQPHGGQVVQSHAHPAPPVAPVQGQQQFQRLKVEDALSYLDQVKLQFGSQPQVYNDFLDIMKEFKSQSIDTPGVISRVSQLFKGHPDLIMGFNTFLPPGYKIEVQTNDMVNVTTPGQVHQIPTHGIQPQPQPPPQHPSQPSSQSAPTPAQPAPQPTAAKVSKPSQLQAHTPASQQTPPLPPYASPRSPPVQPHTPVTISLGTAPSLQNNQPVEFNHAINYVNKIKNRFQGQPDIYKAFLEILHTYQKEQRNAKEAGGNYTPALTEQEVYAQVARLFKNQEDLLSEFGQFLPDANSSVLLSKTTAEKVDSVRNDHGGTVKKPQLNNKPQRPSQNGCQIRRHSGTGATPPVKKKPKLMSLKESSMADASKHGVGTESLFFDKVRKALRSAEAYENFLRCLVIFNQEVISRAELVQLVSPFLGKFPELFNWFKNFLGYKESVHLESFPKERATEGIAMEIDYASCKRLGSSYRALPKSYQQPKCTGRTPLCKEVLNDTWVSFPSWSEDSTFVSSKKTQYEEHIYRCEDERFELDVVLETNLATIRVLEAIQKKLSRLSAEEQAKFRLDNTLGGTSEVIHRKALQRIYADKAADIIDGLRKNPSIAVPIVLKRLKMKEEEWREAQRGFNKVWREQNEKYYLKSLDHQGINFKQNDTKVLRSKSLLNEIESIYDERQEQATEENAGVPVGPHLSLAYEDKQILEDAAALIIHHVKRQTGIQKEDKYKIKQIMHHFIPDLLFAQRGDLSDVEEEEEEEMDVDEATGAPKKHNGVGGSPPKSKLLFSNTAAQKLRGMDEVYNLFYVNNNWYIFMRLHQILCLRLLRICSQAERQIEEENREREWEREVLGIKRDKSDSPAIQLRLKEPMDVDVEDYYPAFLDMVRSLLDGNIDSSQYEDSLREMFTIHAYIAFTMDKLIQSIVRQLQHIVSDEVCVQVTDLYLAENNNGATGGQLNSQTSRSLLESAYQRKAEQLMSDENCFKLMFIQSQGQVQLTVELLDTEEENSDDPVEAERWSDYVERYMSSDTTSPELREHLAQKPVFLPRNLRRIRKCQRGREQQEKEGKEGNSKKTMENVESLDKLECRFKLNSYKMVYVIKSEDYMYRRTALLRAHQSHERVSKRLHQRFQAWVDKWTKEHVPREMAAETSKWLMGEGLEGLVPCTTTCDTETLHFVSINKYRVKYGTVFKAP
